The experiment addresses Itch WW region, GST-tagged (GST-WW) (mouse) (UniProt Q8C863). As to the kind of experiment: pull-down; GST fusion of the WW region or its fragments (or C2) loaded on GSH-Sepharose 4B beads, incubated with Trx-HECT; 50 mM Tris pH 8.0, 100 mM NaCl, 1 mM DTT, 1 mM EDTA, 4 °C, 1 h; three washes; SDS-PAGE, Coomassie; both purified.

Protein sequences, listed by entry. Tags and fused reporters are not part of them. Lines headed by an entry give the natural chain unless they say otherwise; changes in a name come on top.
UniProt Q8C863: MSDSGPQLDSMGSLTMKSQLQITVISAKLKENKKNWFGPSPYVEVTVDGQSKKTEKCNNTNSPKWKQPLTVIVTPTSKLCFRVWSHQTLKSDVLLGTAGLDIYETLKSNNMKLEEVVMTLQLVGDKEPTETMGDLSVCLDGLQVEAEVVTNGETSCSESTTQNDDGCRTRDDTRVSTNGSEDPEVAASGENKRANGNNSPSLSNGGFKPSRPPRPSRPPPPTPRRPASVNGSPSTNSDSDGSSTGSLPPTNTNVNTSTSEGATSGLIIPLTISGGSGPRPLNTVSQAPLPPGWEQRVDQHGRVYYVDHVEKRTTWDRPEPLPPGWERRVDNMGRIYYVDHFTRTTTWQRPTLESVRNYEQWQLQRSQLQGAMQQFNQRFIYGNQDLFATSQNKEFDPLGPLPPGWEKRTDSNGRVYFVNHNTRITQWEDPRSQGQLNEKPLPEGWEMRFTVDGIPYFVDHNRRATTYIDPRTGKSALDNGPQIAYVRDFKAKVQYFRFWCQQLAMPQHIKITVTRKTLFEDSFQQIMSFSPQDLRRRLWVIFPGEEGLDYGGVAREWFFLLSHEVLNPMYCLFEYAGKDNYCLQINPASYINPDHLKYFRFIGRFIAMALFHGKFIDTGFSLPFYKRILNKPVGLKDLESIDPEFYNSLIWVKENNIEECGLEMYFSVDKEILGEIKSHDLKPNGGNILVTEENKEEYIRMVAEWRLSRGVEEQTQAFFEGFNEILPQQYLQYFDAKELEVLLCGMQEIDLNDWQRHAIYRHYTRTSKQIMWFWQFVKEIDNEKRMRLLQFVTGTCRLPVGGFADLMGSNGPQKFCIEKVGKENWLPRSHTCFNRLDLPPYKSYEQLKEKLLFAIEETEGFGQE

No constants are given. Whether binding was seen depends on the method and setting. Binding can be weak; no strength is given.

Regarding “Itch HECT domain, Trx-tagged (Trx-HECT) (from UniProt Q8C863) (domain or fragment)”, the binding result is on record as “binds”.

For the origin of these results see article PMC6639328.
